These results are taken from article PMC7862700.

Amino acid sequences for entries named in this document (tags omitted). A change or cut given only in a name is not applied to a line headed by its entry.
UniProt Q01892: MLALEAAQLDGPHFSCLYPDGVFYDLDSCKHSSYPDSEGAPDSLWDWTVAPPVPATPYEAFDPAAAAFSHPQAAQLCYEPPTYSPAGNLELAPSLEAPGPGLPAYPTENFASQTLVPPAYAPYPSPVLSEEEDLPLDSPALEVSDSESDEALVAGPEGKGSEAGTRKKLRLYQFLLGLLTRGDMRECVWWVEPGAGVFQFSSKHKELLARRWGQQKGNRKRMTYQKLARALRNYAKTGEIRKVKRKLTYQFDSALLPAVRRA

This is a selection; strong and weak results do not stand in their true shares. At the low end of the ranking the order means little.

The target in one experiment is T1, EHF (UniProt Q9NZC4).
T1 sequence: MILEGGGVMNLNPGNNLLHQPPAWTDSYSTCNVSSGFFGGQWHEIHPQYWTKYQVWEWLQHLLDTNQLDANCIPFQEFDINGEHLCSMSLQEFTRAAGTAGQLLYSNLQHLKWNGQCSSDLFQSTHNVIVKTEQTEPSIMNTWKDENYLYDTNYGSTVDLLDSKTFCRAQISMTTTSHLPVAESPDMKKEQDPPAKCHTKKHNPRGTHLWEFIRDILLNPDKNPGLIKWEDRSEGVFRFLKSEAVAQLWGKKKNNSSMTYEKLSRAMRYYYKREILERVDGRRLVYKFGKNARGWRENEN
Nature of the experiment: DAPPL (digital affinity profiling via proximity ligation, sequencing). The note with it: 10 mM Tris-HCl pH 7.5, 50 mM NaCl, 1 mM DTT, 4% glycerol, room temperature, 30 min; GST-TFs on glutathione beads, 16-mer random dsDNA library, 0.1% …; high values mean tight binding; double strand, one strand shown; scale: fold enrichment (6-mer frequency, TF over GST control).
For TTACAT, the binding signal was 1.43.

In turn, TCGTTT registered a binding signal of 1.22.

AAATCG: the binding signal was determined as 1.03.

In the case of CGGCCT, the binding signal amounted to 1.08.

In turn, CAGCCT gave a binding signal of 0.981.

TAAGCC showed a binding signal of 1.08.

CGCCGG yielded a binding signal of 1.19.

Regarding AGCGCT, the binding signal is 0.976.

On to GCCCCA, for which the binding signal came to 0.986.

CGCGTT returned a binding signal of 0.986.

In the case of CCGCAG, the binding signal was determined as 0.998.

Sequence TCACCT had a binding signal of 1.21.

In turn, TCACTC showed a binding signal of 1.27.

For another experiment, the target named is SPIB (UniProt Q01892). Described as above. The note with it: 10 mM Tris-HCl pH 7.5, 50 mM NaCl, 1 mM DTT, 4% glycerol, room temperature, 30 min; GST-TFs on glutathione beads, 16-mer random dsDNA library, 0.1% …; high values mean tight binding; double strand, one strand shown; scale: fold enrichment (6-mer frequency, TF over GST control).
Turning to TTACAT, the binding signal worked out at 1.3.

In turn, TCACCG came in with a binding signal of 0.997.

TCGTTT returned a binding signal of 1.18.

As for GTTCTC, the binding signal turned out to be 1.35.

In the case of ACAGCA, the binding signal was 0.955.

In the case of CGGCCT, the binding signal was found to be 1.02.

Sequence CTTTAG gave a binding signal of 1.11.

CCTGTA yielded a binding signal of 1.19.

Turning to ACGGAA, the binding signal is 1.93.

Turning to CGCCGG, the binding signal is 0.955.

Consider AGCGCT, for which the binding signal was found to be 1.09.

In the case of TCAAGG, the binding signal is 1.04.

The sequence CGAACA came in with a binding signal of 1.19.

TCGCTG displayed a binding signal of 1.22.

Sequence CGCGTT returned a binding signal of 1.05.

The sequence CCGCAG yielded a binding signal of 1.21.

GTACGC yielded a binding signal of 0.988.

The target in another experiment is T2, ETV2 (UniProt O00321).
T2 sequence: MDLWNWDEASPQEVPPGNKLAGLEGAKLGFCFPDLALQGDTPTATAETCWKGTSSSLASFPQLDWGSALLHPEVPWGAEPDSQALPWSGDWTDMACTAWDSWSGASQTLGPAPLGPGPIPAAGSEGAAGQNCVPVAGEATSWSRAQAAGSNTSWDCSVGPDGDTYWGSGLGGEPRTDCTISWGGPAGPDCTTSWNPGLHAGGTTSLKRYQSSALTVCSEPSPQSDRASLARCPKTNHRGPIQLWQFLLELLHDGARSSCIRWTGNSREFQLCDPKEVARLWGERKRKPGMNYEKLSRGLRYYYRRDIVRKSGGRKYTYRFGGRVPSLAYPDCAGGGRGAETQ
The experiment is described as above. To be noted: 10 mM Tris-HCl pH 7.5, 50 mM NaCl, 1 mM DTT, 4% glycerol, room temperature, 30 min; GST-TFs on glutathione beads, 16-mer random dsDNA library, 0.1% …; high values mean tight binding; double strand, one strand shown; scale: fold enrichment (6-mer frequency, TF over GST control).
In turn, TTACAT gave a binding signal of 1.43.

Regarding TCACCG, the binding signal was determined as 0.938.

Consider TCGTTT, for which the binding signal was 1.3.

For AAATCG, the binding signal was found to be 0.977.

In turn, GTTCTC displayed a binding signal of 1.33.

On to ACAGCA, for which the binding signal is 1.06.

On to CGGCCT, for which the binding signal is 0.956.

For the sequence CTTTAG, the binding signal was 1.23.

CAGCCT gave a binding signal of 0.951.

With CCTGTA, the binding signal was found to be 1.21.

Consider ACGGAA, for which the binding signal stood at 1.75.

As for TAAGCC, the binding signal amounted to 1.09.

Take CGCCGG: the binding signal amounted to 1.06.

On to AGCGCT, for which the binding signal was 0.947.

As for GCCCCA, the binding signal came to 0.967.

TCAAGG: the binding signal turned out to be 1.19.

The sequence CGAACA displayed a binding signal of 1.22.

TCGCTG returned a binding signal of 0.926.

As to CGCGTT, the binding signal is 1.16.

In the case of CCGCAG, the binding signal is 1.22.

For the sequence TCACCT, the binding signal is 1.21.

As for TCACTC, the binding signal amounted to 1.35.

In the case of GTACGC, the binding signal was found to be 0.988.
